Source: the supplement of paper PMC7666118
The list shows a part of the results.

The chains behind the UniProt entries cited, without tags or fusion partners. Where a name states a change or a piece, a line headed by the entry shows the natural chain unless it says otherwise.
UniProt Q00613: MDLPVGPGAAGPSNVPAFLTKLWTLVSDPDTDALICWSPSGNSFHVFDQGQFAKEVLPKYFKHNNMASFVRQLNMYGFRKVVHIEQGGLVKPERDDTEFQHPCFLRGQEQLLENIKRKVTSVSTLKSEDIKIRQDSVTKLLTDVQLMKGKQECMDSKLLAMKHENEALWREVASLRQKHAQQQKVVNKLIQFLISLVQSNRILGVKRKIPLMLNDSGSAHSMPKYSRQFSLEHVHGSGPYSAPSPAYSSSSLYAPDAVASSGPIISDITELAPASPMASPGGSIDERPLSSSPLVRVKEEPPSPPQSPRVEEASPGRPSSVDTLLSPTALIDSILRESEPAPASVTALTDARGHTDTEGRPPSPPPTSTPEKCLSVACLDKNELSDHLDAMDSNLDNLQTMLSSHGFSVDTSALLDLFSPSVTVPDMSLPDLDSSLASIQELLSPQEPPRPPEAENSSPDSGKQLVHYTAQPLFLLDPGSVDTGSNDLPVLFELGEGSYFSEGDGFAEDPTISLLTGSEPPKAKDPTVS
UniProt O94953: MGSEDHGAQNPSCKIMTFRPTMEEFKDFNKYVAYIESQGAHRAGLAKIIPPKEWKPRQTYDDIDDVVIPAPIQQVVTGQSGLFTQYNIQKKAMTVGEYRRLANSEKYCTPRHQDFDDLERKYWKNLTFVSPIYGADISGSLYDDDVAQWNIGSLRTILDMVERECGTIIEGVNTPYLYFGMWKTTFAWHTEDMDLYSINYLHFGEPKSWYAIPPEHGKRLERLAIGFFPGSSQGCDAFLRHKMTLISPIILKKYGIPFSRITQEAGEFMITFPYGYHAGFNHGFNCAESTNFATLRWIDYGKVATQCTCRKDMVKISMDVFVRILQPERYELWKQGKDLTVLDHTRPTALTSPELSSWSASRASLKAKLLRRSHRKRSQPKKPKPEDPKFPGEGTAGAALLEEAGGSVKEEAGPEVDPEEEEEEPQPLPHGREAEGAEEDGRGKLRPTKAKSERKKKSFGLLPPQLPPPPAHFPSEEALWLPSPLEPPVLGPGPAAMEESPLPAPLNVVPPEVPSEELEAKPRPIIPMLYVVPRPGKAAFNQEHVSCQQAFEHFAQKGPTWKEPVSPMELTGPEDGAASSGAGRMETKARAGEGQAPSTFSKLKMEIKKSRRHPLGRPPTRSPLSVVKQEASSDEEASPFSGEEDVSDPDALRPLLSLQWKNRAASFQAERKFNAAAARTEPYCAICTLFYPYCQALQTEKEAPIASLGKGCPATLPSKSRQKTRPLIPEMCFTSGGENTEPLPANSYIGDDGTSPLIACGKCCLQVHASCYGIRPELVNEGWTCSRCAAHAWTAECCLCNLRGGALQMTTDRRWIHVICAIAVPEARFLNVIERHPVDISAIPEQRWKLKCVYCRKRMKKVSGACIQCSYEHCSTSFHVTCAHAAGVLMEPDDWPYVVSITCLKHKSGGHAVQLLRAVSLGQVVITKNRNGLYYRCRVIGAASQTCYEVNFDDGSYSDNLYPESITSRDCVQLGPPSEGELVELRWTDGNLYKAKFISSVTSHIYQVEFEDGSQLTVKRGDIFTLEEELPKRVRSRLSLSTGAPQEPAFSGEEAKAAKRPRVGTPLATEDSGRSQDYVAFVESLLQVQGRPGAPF
UniProt Q9NPH3, whole entry: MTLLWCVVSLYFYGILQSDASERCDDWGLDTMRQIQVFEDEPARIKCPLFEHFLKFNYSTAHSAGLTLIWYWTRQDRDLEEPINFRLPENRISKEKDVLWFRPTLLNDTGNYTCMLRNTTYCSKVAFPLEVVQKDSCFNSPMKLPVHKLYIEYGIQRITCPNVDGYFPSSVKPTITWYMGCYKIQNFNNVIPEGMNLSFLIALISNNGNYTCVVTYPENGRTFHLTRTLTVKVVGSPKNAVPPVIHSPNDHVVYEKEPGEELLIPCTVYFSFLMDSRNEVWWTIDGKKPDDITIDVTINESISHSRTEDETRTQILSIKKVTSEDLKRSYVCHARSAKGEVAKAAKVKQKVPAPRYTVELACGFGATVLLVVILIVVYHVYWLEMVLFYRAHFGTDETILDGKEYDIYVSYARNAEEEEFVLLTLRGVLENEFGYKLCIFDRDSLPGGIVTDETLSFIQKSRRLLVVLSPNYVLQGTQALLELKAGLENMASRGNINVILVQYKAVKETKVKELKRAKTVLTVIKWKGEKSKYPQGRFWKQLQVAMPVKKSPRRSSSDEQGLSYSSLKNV
UniProt Q9NQS7, whole entry: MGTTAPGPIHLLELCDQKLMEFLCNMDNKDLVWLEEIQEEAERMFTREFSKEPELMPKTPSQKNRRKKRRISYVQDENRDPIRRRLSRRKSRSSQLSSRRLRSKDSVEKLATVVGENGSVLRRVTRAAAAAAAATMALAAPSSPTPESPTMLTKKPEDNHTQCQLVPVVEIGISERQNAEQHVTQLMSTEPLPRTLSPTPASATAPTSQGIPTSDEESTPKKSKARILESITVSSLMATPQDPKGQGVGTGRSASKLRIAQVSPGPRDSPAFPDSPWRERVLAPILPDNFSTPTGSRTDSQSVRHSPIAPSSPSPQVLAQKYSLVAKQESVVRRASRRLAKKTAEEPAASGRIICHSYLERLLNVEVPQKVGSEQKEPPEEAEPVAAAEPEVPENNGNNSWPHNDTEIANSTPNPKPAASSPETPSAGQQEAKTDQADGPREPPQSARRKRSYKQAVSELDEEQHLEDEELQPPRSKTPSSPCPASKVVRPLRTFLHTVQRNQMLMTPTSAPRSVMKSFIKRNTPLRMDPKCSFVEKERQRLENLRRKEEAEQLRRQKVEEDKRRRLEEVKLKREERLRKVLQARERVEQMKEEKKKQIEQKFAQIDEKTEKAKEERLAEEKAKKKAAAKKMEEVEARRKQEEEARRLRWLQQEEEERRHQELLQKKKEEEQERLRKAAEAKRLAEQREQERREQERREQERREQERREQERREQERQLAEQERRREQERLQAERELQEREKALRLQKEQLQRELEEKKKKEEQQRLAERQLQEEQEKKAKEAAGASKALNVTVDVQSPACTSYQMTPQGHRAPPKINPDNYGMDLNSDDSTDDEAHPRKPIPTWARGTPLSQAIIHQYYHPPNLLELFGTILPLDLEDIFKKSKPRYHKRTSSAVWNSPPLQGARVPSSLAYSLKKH
UniProt Q92598: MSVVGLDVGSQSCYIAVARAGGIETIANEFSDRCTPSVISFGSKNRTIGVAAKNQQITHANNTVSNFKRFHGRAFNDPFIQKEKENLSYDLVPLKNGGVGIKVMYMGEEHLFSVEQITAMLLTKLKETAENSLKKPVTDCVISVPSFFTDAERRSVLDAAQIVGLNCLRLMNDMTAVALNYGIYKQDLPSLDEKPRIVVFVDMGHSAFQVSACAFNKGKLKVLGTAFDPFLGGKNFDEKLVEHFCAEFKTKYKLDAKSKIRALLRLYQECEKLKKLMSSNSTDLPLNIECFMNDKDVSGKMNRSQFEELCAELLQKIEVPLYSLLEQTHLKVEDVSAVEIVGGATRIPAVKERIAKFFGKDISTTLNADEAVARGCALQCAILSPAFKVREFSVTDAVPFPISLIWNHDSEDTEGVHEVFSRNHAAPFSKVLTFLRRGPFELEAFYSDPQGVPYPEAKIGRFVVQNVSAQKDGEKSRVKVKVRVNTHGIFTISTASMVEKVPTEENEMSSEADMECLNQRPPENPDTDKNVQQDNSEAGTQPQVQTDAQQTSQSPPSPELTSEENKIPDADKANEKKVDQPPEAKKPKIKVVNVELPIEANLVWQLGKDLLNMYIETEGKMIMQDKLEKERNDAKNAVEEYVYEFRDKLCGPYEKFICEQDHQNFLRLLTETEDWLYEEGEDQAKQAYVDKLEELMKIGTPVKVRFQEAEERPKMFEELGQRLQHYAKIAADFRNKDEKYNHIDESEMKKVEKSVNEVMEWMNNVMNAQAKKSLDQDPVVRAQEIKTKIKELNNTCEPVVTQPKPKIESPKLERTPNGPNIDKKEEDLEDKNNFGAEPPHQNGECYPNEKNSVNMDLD
UniProt Q96SI1: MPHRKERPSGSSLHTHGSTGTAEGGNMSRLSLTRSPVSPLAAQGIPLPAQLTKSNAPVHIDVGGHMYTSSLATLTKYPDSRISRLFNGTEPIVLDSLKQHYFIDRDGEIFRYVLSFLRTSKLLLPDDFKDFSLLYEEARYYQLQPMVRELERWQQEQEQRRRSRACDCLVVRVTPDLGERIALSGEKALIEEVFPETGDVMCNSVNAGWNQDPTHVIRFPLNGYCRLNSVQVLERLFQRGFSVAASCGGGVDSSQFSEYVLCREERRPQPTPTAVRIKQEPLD
UniProt P38935: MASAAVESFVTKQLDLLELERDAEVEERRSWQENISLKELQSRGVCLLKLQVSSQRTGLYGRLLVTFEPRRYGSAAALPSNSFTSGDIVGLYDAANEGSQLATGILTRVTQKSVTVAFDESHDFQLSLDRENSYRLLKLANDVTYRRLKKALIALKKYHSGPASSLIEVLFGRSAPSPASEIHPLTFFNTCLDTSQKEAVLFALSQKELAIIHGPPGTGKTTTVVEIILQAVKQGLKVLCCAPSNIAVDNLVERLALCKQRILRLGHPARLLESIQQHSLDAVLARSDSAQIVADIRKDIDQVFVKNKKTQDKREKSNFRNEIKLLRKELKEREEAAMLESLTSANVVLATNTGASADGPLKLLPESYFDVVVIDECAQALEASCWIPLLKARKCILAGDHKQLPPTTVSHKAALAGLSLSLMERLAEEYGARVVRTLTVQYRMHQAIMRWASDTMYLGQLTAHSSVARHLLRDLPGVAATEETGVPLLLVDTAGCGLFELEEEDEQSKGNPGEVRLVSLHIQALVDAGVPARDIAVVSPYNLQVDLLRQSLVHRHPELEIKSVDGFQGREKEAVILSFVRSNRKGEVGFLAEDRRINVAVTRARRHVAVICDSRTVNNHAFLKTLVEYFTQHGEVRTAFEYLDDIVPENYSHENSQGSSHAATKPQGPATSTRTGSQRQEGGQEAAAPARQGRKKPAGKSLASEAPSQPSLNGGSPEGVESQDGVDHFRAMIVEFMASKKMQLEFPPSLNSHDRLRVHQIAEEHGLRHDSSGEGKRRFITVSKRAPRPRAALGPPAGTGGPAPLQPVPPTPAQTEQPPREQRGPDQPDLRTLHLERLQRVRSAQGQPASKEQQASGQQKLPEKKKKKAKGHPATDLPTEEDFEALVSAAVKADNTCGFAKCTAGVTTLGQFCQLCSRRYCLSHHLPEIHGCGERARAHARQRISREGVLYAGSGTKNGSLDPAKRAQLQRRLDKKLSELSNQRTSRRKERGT
UniProt Q13478: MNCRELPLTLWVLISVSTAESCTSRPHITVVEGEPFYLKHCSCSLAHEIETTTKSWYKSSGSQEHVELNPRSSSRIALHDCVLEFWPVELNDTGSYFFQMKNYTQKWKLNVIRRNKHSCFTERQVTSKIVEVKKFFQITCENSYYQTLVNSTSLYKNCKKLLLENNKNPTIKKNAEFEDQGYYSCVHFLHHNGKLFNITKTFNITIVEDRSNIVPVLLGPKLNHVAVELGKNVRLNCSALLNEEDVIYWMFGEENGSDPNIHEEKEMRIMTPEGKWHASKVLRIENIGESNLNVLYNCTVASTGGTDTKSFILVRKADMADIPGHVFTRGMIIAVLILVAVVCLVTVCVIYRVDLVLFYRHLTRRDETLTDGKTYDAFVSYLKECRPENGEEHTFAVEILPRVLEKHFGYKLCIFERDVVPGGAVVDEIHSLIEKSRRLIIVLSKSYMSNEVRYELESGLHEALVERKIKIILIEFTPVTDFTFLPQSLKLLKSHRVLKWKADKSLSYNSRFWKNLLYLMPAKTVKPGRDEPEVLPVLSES
UniProt P31942: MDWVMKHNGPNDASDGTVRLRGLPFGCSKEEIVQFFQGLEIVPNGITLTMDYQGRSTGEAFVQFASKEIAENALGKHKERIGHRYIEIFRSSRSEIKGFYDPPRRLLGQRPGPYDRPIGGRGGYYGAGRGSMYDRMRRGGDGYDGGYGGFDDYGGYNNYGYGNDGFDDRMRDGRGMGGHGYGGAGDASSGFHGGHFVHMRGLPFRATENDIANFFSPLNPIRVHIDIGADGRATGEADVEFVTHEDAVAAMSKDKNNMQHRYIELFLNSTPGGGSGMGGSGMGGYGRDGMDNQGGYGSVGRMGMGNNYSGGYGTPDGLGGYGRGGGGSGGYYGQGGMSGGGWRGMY
UniProt Q96CX2: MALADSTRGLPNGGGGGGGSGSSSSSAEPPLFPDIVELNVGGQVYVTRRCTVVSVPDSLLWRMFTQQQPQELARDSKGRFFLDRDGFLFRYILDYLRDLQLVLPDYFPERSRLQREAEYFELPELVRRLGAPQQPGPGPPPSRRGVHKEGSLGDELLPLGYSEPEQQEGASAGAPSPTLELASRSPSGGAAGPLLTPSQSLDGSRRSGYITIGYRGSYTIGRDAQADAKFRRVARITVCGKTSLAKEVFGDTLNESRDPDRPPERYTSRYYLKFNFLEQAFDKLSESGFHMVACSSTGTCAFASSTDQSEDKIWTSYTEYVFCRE

compound: COc1ccc(Cn2ccc3ccc(C(=O)NO)cc32)cc1; experiment: dose-dependent thermal stabilisation call (2D-TPP, DLPTP, 10% FDR) (binary (1 = stabilised)); higher = stabilised by the compound; details: system: HL-60 intact cells; concentration range 0.04-10 µM

Target	dose-dependent thermal stabilisation call
KATNA1 (UniProt O75449)	inactive: 0
IDH1 (UniProt O75874)	inactive: 0
HSDL1 (UniProt Q3SXM5)	inactive: 0
IKZF1 (UniProt Q13422)	inactive: 0
HPS1 (UniProt Q92902)	inactive: 0
HPS6 (UniProt Q86YV9)	inactive: 0
INTS7 (UniProt Q9NVH2)	inactive: 0
HSF1 (UniProt Q00613)	inactive: 0
JMJD2B (UniProt O94953)	inactive: 0
HMGB1 (UniProt P09429)	inactive: 0
HVCN1 (UniProt Q96D96)	inactive: 0
IL1RAP (UniProt Q9NPH3)	inactive: 0
INCENP (UniProt Q9NQS7)	inactive: 0
IFT74 (UniProt Q96LB3)	inactive: 0
HTATSF1 (UniProt O43719)	inactive: 0
KCTD10 (UniProt Q9H3F6)	inactive: 0
HSPH1 (UniProt Q92598)	inactive: 0
IL18 (UniProt Q14116)	inactive: 0
KHK (UniProt P50053)	inactive: 0

Quoted from the results shown for reference:
Target	dose-dependent thermal stabilisation call
KCTD10 (UniProt Q9H3F6)	inactive: 0
HSPH1 (UniProt Q92598)	inactive: 0
IL18 (UniProt Q14116)	inactive: 0

The listing continues.

Target	dose-dependent thermal stabilisation call
KCTD15 (UniProt Q96SI1)	inactive: 0
KIAA0430 (UniProt Q9Y4F3)	inactive: 0
HNRNPH2 (UniProt P55795)	inactive: 0
HMGB2 (UniProt P26583)	inactive: 0
INF2 (UniProt Q27J81)	inactive: 0
IGHMBP2 (UniProt P38935)	inactive: 0
IL18R1 (UniProt Q13478)	inactive: 0
JTB (UniProt O76095)	inactive: 0
HOOK3 (UniProt Q86VS8)	inactive: 0
HNRNPH3 (UniProt P31942)	inactive: 0
JAK1 (UniProt P23458)	inactive: 0
KAT5 (UniProt Q92993)	inactive: 0
IWS1 (UniProt Q96ST2)	inactive: 0
KCTD3 (UniProt Q9Y597)	inactive: 0
KCTD12 (UniProt Q96CX2)	inactive: 0
INPP4A (UniProt Q96PE3)	inactive: 0
KBTBD2 (UniProt Q8IY47)	inactive: 0
KIAA0494 (UniProt O75071)	inactive: 0
